# Data reported in patent US20130034493A1.
# These are yes or no findings as the source states them, for the method shown. In cells and extracts the contact can be indirect. A yes stands for co-enrichment or nearness to the bait. Other partners may have been found. Sequences can lack the tags named with a protein.
# T1: recombinant BMP4 (rBMP4) (mouse) (UniProt P21275)
# T1 sequence (looked up): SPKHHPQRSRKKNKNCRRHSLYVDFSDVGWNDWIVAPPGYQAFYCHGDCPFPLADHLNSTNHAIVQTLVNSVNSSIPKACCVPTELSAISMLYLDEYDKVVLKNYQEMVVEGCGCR
# B1: mouse recombinant Olfml3-FLAG tagged protein (rOlfml3-FLAG) (protein, not shown: small tags and cut ends)
# chain: QQHHLVEYMERRLAALEERLAQCQDQSSRHAAELRDFKNKMLPLLEVAEKERETLRTEADSISGRVDRLEREVDYLETQNPALPCVELDEKVTGGPGAKGKGRRNEKYDMVTDCSYTVAQVRSMKILKRFGGSVGLWTKDPLGPAEKIYVLDGTQNDTAFVFPRLRDFTLAMAARKASRIRVPFPWVGTGQLVYGGFLYYARRPPGGPGGGGELENTLQLIKFHLANRTVVDSSVFPAESLIPPYGLTADTYIDLAADEEGLWAVYATRDDDRHLCLAKLDPQTLDTEQQWDTPCPRENAEAAFVICGTLYVVYNTRPASRARIQCSFDASGTLAPERAALSYFPRRYGAHASLRYNPRERQLYAWDDGYQIVYKLEMKKKEEEV
# What was measured:
# [1] = target: T1, recombinant BMP4 (rBMP4) (mouse); assay: ELISA; co-immunoprecipitation; mass spectrometry
# [2] = target: T1, recombinant BMP4 (rBMP4) (mouse); assay: pull-down, tandem mass spectrometry of the gel slice (FIG. 14)
binder,measurement,setting,value
B1,binding,[1],binds
same,binding,[2],binds
